In PMC6747245:
No constants are given. Whether binding was seen depends on the method and setting. In cells and extracts the contact can be indirect. A result given as binding can be weak or reduced; the word gives no strength. Tags and fused reporters may be left off the sequences shown.

B1: AtRGS1-cYFP (protein, UniProt Q8H1F2 1-459)
chain: MASGCALHGGCPSDYVAVAISVICFFVLLSRSVLPCLIHKAPRTNSSSFWIPVIQVISSFNLLFSIMMSVNLLRFRTKHWWRYCYLWAVWIEGPLGFGLLMSCRITQAFQLYFIFVKKRLPPVKSYIFLPLVLLPWIFGAAIIHATKPLNDKCHMGLQWTFPVAGLHALYVLALIAFTRAVRHVEFRFDELRDLWKGILVSATSIVIWVTAFVLNEIHEEISWLQVASRFVLLVTGGILVVVFFSISSNQPLLSQISLKKRQNFEFQRMGQALGIPDSGLLFRKEEFRPVDPNEPLDKLLLNKRFRHSFMEFADSCYAGETLHFFEEVYEHGKIPEDDSIRRIYMARHIMEKFIVAGAEMELNLSHKTRQEILTTQDLTHTDLFKNALNEVMQLIKMNLVRDYWSSIYFIKFKEEESCHEAMHKEGYSFSSPRLSSVQGSDDPFYQEHMSKSSRCSSPG
B2: RGS1-GFP (protein, UniProt Q8H1F2 1-459)
chain: B1 chain
B3: RGS1^1–283-GFP (domain or fragment, UniProt Q8H1F2 1-283)
chain: MASGCALHGGCPSDYVAVAISVICFFVLLSRSVLPCLIHKAPRTNSSSFWIPVIQVISSFNLLFSIMMSVNLLRFRTKHWWRYCYLWAVWIEGPLGFGLLMSCRITQAFQLYFIFVKKRLPPVKSYIFLPLVLLPWIFGAAIIHATKPLNDKCHMGLQWTFPVAGLHALYVLALIAFTRAVRHVEFRFDELRDLWKGILVSATSIVIWVTAFVLNEIHEEISWLQVASRFVLLVTGGILVVVFFSISSNQPLLSQISLKKRQNFEFQRMGQALGIPDSGLLFR
B4: RGS1^1–413-GFP (domain or fragment, UniProt Q8H1F2 1-413)
chain: MASGCALHGGCPSDYVAVAISVICFFVLLSRSVLPCLIHKAPRTNSSSFWIPVIQVISSFNLLFSIMMSVNLLRFRTKHWWRYCYLWAVWIEGPLGFGLLMSCRITQAFQLYFIFVKKRLPPVKSYIFLPLVLLPWIFGAAIIHATKPLNDKCHMGLQWTFPVAGLHALYVLALIAFTRAVRHVEFRFDELRDLWKGILVSATSIVIWVTAFVLNEIHEEISWLQVASRFVLLVTGGILVVVFFSISSNQPLLSQISLKKRQNFEFQRMGQALGIPDSGLLFRKEEFRPVDPNEPLDKLLLNKRFRHSFMEFADSCYAGETLHFFEEVYEHGKIPEDDSIRRIYMARHIMEKFIVAGAEMELNLSHKTRQEILTTQDLTHTDLFKNALNEVMQLIKMNLVRDYWSSIYFIKFK
B5: RGS1^1–283,414–459-GFP (domain or fragment, UniProt Q8H1F2)
chain: MASGCALHGGCPSDYVAVAISVICFFVLLSRSVLPCLIHKAPRTNSSSFWIPVIQVISSFNLLFSIMMSVNLLRFRTKHWWRYCYLWAVWIEGPLGFGLLMSCRITQAFQLYFIFVKKRLPPVKSYIFLPLVLLPWIFGAAIIHATKPLNDKCHMGLQWTFPVAGLHALYVLALIAFTRAVRHVEFRFDELRDLWKGILVSATSIVIWVTAFVLNEIHEEISWLQVASRFVLLVTGGILVVVFFSISSNQPLLSQISLKKRQNFEFQRMGQALGIPDSGLLFREEESCHEAMHKEGYSFSSPRLSSVQGSDDPFYQEHMSKSSRCSSPG
B6: RGS1^1–250-GFP (domain or fragment, UniProt Q8H1F2 1-250)
chain: MASGCALHGGCPSDYVAVAISVICFFVLLSRSVLPCLIHKAPRTNSSSFWIPVIQVISSFNLLFSIMMSVNLLRFRTKHWWRYCYLWAVWIEGPLGFGLLMSCRITQAFQLYFIFVKKRLPPVKSYIFLPLVLLPWIFGAAIIHATKPLNDKCHMGLQWTFPVAGLHALYVLALIAFTRAVRHVEFRFDELRDLWKGILVSATSIVIWVTAFVLNEIHEEISWLQVASRFVLLVTGGILVVVFFSISSNQ
B7: RGS1^14–250-GFP (domain or fragment, UniProt Q8H1F2 14-250)
chain: DYVAVAISVICFFVLLSRSVLPCLIHKAPRTNSSSFWIPVIQVISSFNLLFSIMMSVNLLRFRTKHWWRYCYLWAVWIEGPLGFGLLMSCRITQAFQLYFIFVKKRLPPVKSYIFLPLVLLPWIFGAAIIHATKPLNDKCHMGLQWTFPVAGLHALYVLALIAFTRAVRHVEFRFDELRDLWKGILVSATSIVIWVTAFVLNEIHEEISWLQVASRFVLLVTGGILVVVFFSISSNQ

target: nYFP-ATG8a (Arabidopsis thaliana); assay: split reporter; split nYFP and cYFP pairs co-expressed with p19 and Mt-rk in 4-5-week-old Nicotiana benthamiana leaves by Agrobacterium infiltration; confocal images 3 days after inoculation

binding, binds:
B1

target: His-ATG8a (Arabidopsis thaliana); assay: pull-down; purified His-ATG8a on Ni-NTA agarose incubated with N. benthamiana leaf extracts for 2 h at 4 °C; 100 mM Tris-HCl pH 7.5, 150 mM NaCl, 1 mM EDTA, 0.5% Nonidet P-40; beads washed thrice; Western blot with GFP antibody; only the target purified

binding, binds:
B2, B3, B4, B5, B6, B7
